## Drug screen on melanoma cell lines: apoptosis marker

Source: doi:10.1371/journal.pone.0140310, primary screening data, rounded.

First drug in all entries: U73122, 2 µM, COc1ccc2c(c1)CCC1C2CCC2(C)C(NCCCCCCN3C(=O)C=CC3=O)CCC12 (stereo not given)

Drugs:
GSK0660, 5 µM: COC(=O)c1sccc1S(=O)(=O)Nc1ccc(Nc2ccccc2)cc1OC
AZD7762, 0.1 µM: NC(=O)Nc1cc(-c2cccc(F)c2)sc1C(=O)N[C@H]1CCCNC1
PF-562271, 0.4 µM: CN(c1ncccc1CNc1nc(Nc2ccc3c(c2)CC(=O)N3)ncc1C(F)(F)F)S(C)(=O)=O
temozolomide, 10 µM: Cn1nnc2c(C(N)=O)ncn2c1=O
SU6656, 2 µM: CN(C)S(=O)(=O)c1ccc2c(c1)/C(=C/c1cc3c([nH]1)CCCC3)C(=O)N2
NVP-TAE684, 0.4 µM: COc1cc(N2CCC(N3CCN(C)CC3)CC2)ccc1Nc1ncc(Cl)c(Nc2ccccc2S(=O)(=O)C(C)C)n1
sorafenib, 2 µM: CNC(=O)c1cc(Oc2ccc(NC(=O)Nc3ccc(Cl)c(C(F)(F)F)c3)cc2)ccn1
Src-I1, 10 µM: COc1cc2ncnc(Nc3ccc(Oc4ccccc4)cc3)c2cc1OC
PD173074, 0.5 µM: CCN(CC)CCCCNc1ncc2cc(-c3cc(OC)cc(OC)c3)c(NC(=O)NC(C)(C)C)nc2n1
dovitinib, 0.5 µM: CN1CCN(c2ccc3nc(-c4c(N)c5c(F)cccc5[nH]c4=O)[nH]c3c2)CC1
tamatinib, 2 µM: COc1cc(Nc2ncc(F)c(Nc3ccc4c(n3)NC(=O)C(C)(C)O4)n2)cc(OC)c1OC
FH535, 5 µM: Cc1cc([N+](=O)[O-])ccc1NS(=O)(=O)c1cc(Cl)ccc1Cl
bortezomib, 0.005 µM: CC(C)C[C@H](NC(=O)[C@H](Cc1ccccc1)NC(=O)c1cnccn1)B(O)O
bexarotene, 10 µM: C=C(c1ccc(C(=O)O)cc1)c1cc2c(cc1C)C(C)(C)CCC2(C)C
MK-2206, 2 µM: NC1(c2ccc(-c3nc4ccn5c(=O)[nH]nc5c4cc3-c3ccccc3)cc2)CCC1
nilotinib, 1 µM: Cc1cn(-c2cc(NC(=O)c3ccc(C)c(Nc4nccc(-c5cccnc5)n4)c3)cc(C(F)(F)F)c2)cn1
docetaxel, 0.0005 µM: CC(=O)O[C@@]12CO[C@@H]1C[C@H](O)[C@@]1(C)C(=O)[C@H](O)C3=C(C)[C@@H](OC(=O)[C@H](O)[C@@H](NC(=O)OC(C)(C)C)c4ccccc4)C[C@@](O)([C@@H](OC(=O)c4ccccc4)[C@H]21)C3(C)C
ABT-263, 2 µM: CC1(C)CCC(c2ccc(Cl)cc2)=C(CN2CCN(c3ccc(C(=O)NS(=O)(=O)c4ccc(N[C@H](CCN5CCOCC5)CSc5ccccc5)c(S(=O)(=O)C(F)(F)F)c4)cc3)CC2)C1
vorinostat, 0.4 µM: O=C(CCCCCCC(=O)Nc1ccccc1)NO
vincristine, 0.0005 µM: CC[C@]1(O)C[C@H]2CN(CCc3c([nH]c4ccccc34)[C@@](C(=O)OC)(c3cc4c(cc3OC)N(C=O)[C@H]3[C@@](O)(C(=O)OC)[C@H](OC(C)=O)[C@]5(CC)C=CCN6CC[C@]43[C@@H]65)C2)C1

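The test systems are human melanoma cell lines, treated with a pair of drugs for 72 h and then stained and imaged. The read-out is the fraction of cleaved-PARP-positive nuclei, in % of that fraction in the DMSO control; 200 means twice the control level of this apoptosis marker. Concentrations were fixed for each drug; these are the higher of two levels. The file gives one value for each pair and line, without errors, so small differences may be noise. The marker varies much from line to line, for technical or biological reasons.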
Only some of the drugs and lines screened are listed, without regard to their results.
A dash means that no value is listed here.

| Second drug | IST-MEL1 | G-361 | MEL-HO | SK-MEL-5 | MeWo | LOX IMVI | SK-MEL-2 | 501mel |
|---|---|---|---|---|---|---|---|---|
| tamatinib | 63.6 | 170 | 25.5 | 128 | 132 | 102 | 90.7 | 114 |
| MK-2206 | 154 | 37.8 | 55.5 | 201 | 61.6 | 169 | 94.5 | 131 |
| bortezomib | 490 | 7860 | 128 | 280 | 489 | 118 | 78.9 | 1180 |
| AZD7762 | 55.9 | 57.6 | 93.2 | 145 | 80.6 | 75.8 | 97.0 | 241 |
| Src-I1 | 71.7 | 572 | 52.9 | 200 | 23.7 | 268 | 97.1 | 121 |
| sorafenib | 84.9 | 273 | 76.7 | 64.5 | 29.2 | 138 | 158 | 78.8 |
| bexarotene | 99.7 | 160 | 273 | 126 | 78.3 | 41.9 | 121 | 126 |
| docetaxel | 545 | 708 | 107 | 333 | 788 | 107 | 1700 | 230 |
| ABT-263 | 147 | 178 | 119 | 123 | 104 | 325 | - | - |
| FH535 | 115 | 493 | 213 | 174 | 64.7 | 158 | 145 | 190 |
| dovitinib | 45.5 | 65.2 | 145 | 190 | 79.0 | 112 | 177 | 116 |
| nilotinib | 246 | 133 | 178 | 98.8 | 188 | 142 | 68.9 | 172 |
| GSK0660 | 25.7 | 73.3 | 43.5 | 128 | 191 | 189 | 64.2 | 69.9 |
| NVP-TAE684 | 111 | 128 | 53.5 | 230 | 53.7 | 79.8 | 231 | - |
| temozolomide | 78.6 | 18.4 | 87.4 | 40.1 | 228 | 129 | 163 | 65.1 |
| vorinostat | 66.9 | 152 | 57.8 | 249 | 118 | 211 | 47.5 | 47.4 |
| SU6656 | 59.8 | 30.7 | 88.4 | 188 | 75.1 | 44.8 | 90.1 | 289 |
| PD173074 | 268 | 62.2 | 78.7 | 47.2 | 199 | 39.5 | 56.0 | 77.8 |
| vincristine | 157 | 145 | 156 | 43.6 | 193 | 127 | 65.3 | 93.8 |
| PF-562271 | 46.4 | 149 | 72.2 | 66.8 | 99.7 | 120 | 113 | 122 |

Once more, the final 2:

Second drug,IST-MEL1,G-361,MEL-HO,SK-MEL-5,MeWo,LOX IMVI,SK-MEL-2,501mel
vincristine,157,145,156,43.6,193,127,65.3,93.8
PF-562271,46.4,149,72.2,66.8,99.7,120,113,122